Data taken from patent publication US5599902A, “Cancer inhibitory peptides” (Arizona Board of Regents acting on behalf of Arizona State …, priority 1994, dated 1997).
Values after ≈ are worked out from the molar mass of the structure shown. Not every detail of the peptide structures is certain; ends, links or a residue may be inferred.

Experiments:
Format in all cases: cell-based
[1] = test system: OVCAR-3; experiment: Human cancer cell line growth inhibition, Ovarian OVCAR-3; details: Ovarian OVCAR-3, 48 hours
Method: (§1) Cancer Inst. […] Cancer Inst. Reports, Vol 81, No. 14, Page 1088, Jul.
(§2) The only difference is historical usage.
(§3) Percent Growths are calculated for each dose.
(§4) This is the "baseline count" or "Tzero reading".

[2] = test system: SF-2X5; experiment: Human cancer cell line growth inhibition, CNS SF-2X5; details: CNS SF-2X5, 48 hours
Method: as §1, §2, §3, §4

[3] = test system: A4X8; experiment: Human cancer cell line growth inhibition, Renal A4X8; details: Renal A4X8, 48 hours
Method: as §1, §2, §3, §4

[4] = test system: NCI-H460; experiment: Human cancer cell line growth inhibition, Lung-NSC NCI-H460; details: Lung-NSC NCI-H460, 48 hours
Method: as §1, §2, §3, §4

[5] = test system: KM20L2; experiment: Human cancer cell line growth inhibition, Colon KM20L2; details: Colon KM20L2, 48 hours
Method: as §1, §2, §3, §4

[6] = test system: SK-MEL-5; experiment: Human cancer cell line growth inhibition, Melanoma SK-MEL-5; details: Melanoma SK-MEL-5, 48 hours
Method: as §1, §2, §3, §4

[7] = test system: PS-388 Leukemia cell line; experiment: PS-388 mouse leukemia cell line growth inhibition; details: Mouse Leukemia PS-388, 48 hours
Method: as §2, §3, §4

| SMILES | GI-50 [1] [µg/mL] | GI-50 [2] [µg/mL] | GI-50 [3] [µg/mL] | GI-50 [4] [µg/mL] | GI-50 [5] [µg/mL] | GI-50 [6] [µg/mL] | ED-50 [7] [µg/mL] | TGI [1] [mg/L] | TGI [2] [mg/L] | TGI [3] [mg/L] | TGI [4] [mg/L] | TGI [5] [mg/L] | TGI [6] [mg/L] |
| --- | --- | --- | --- | --- | --- | --- | --- | --- | --- | --- | --- | --- | --- |
| CC[C@H](C)[C@@H]([C@@H](CC(=O)N1CCC[C@H]1/C=C/C(=O)N[C@@H](CCSC)C(=O)OC)OC)N(C)C(=O)[C@@H](NC(=O)[C@H](C(C)C)N(C)C)C(C)C [22a, trans-Dov-val-dil-desmethoxy desmethyl dehydrodolaproine-methionine methyl ester] | 0.015 | 0.077 | 0.088 | 0.032 | – | – | – | – | – | – | – | – | – |
| CC[C@H](C)[C@@H]([C@@H](CC(=O)N1CCC[C@H]1/C=C(\C)C(=O)N[C@@H](CCSC)C(=O)OC)OC)N(C)C(=O)[C@@H](NC(=O)[C@H](C(C)C)N(C)C)C(C)C [22b, trans-Dov-val-dil-desmethoxy dehydrodolaproine-methionine methyl ester] | – | 0.27 | 0.25 | 0.096 | 0.13 | 0.091 | 0.464 | – | – | – | – | – | – |
| CC[C@H](C)[C@@H]([C@@H](CC(=O)N1CCC[C@H]1CCC(=O)N[C@@H](CCSC)C(=O)OC)OC)N(C)C(=O)[C@@H](NC(=O)[C@H](C(C)C)N(C)C)C(C)C [22c, Dov-val-dil-desmethoxy-desmethyl-dolaproine-methionine methyl ester] | 0.0031 | 0.026 | – | 0.0054 | – | 0.0073 | 0.7 | – | – | – | – | – | – |
| CCOC(=O)/C(C)=C/[C@@H]1CCCN1C(=O)C[C@@H](OC)[C@H]([C@@H](C)CC)N(C)C(=O)[C@@H](NC(=O)[C@H](C(C)C)N(C)C)C(C)C [compound 20, trans-Dov-Val-Dil-desmethoxy-dehydro-dolaproine ethyl ester] | 0.0099 | 0.0067 | 0.027 | 0.033 | 0.028 | 0.025 | 0.393 | 0.057 (≈ 0.0958 µM) | 0.035 (≈ 0.0588 µM) | 0.45 (≈ 0.757 µM) | 0.34 (≈ 0.572 µM) | 0.12 (≈ 0.202 µM) | 0.061 (≈ 0.103 µM) |
| CC[C@H](C)[C@@H]([C@@H](CC(=O)N[C@@H](Cc1ccccc1)c1nccs1)OC)N(C)C(=O)[C@@H](NC(=O)[C@H](C(C)C)N(C)C)C(C)C [compound 24, Dov-Val-Dil-Doe] | – | 0.0072 | – | – | 0.034 | 0.032 | 0.235 | – | – | – | – | – | – |
